Source: patent publication US20160216269A1 (BIOCARE MEDICAL, published 2016)
No constants are given. Whether binding was seen depends on the method and setting. Some results given as binding are weak or reduced against the parent protein; the word gives no strength.

By UniProt entry, the sequences of proteins in these tests, tags left out. Residues count along the entry.
UniProt P56693, residues 147-253: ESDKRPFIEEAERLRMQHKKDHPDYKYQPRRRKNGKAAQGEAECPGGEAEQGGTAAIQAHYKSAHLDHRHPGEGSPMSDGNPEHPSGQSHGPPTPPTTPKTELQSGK

Target: human SOX10 protein (human) (UniProt P56693)
Test: ELISA on recombinant SOX10, Western blot, IHC on human tissues

binding: binds
B1: mouse monoclonal anti-SOX10 antibody BC34 (antibody, V domains shown)
VH: QVTLKESGPGILQPSQTLSLTCSFSGFSLSTFLIGVGWIRQPSGKGLEWLAHIWWNDNKYYNTALKNRLTISKDTSNNQVFLKIASVDTTDTATYYCVRMAGIGGTDAMDYWGQGTSVTVSS
VL: DIVLTQSPASLAVSLGQRATISCRASEIVEYYGTNLLQWYQQKPGQPPKLLIYAASNVESGVPARFSGSGSGTDFSLNIHPVEEDDIAIYFCQQSRKVPWTFGGGTKLEIK
notes: also called anti-SOX10 antibody [clone BC34]; SOX10 [BC34]
